The source of these data is patent US20080027001A1, “NOGO RECEPTOR FUNCTIONAL MOTIFS, PEPTIDE MIMETICS, AND MUTATED FUNCTIONAL MOTIFS RELATED THERETO, AND METHODS OF USING THE SAME” (priority 2006, published 2008).

Sequences of proteins named here, by UniProt entry; tags and fusion partners are left off. Residues count along the entry.
UniProt P08138, residues 29-427: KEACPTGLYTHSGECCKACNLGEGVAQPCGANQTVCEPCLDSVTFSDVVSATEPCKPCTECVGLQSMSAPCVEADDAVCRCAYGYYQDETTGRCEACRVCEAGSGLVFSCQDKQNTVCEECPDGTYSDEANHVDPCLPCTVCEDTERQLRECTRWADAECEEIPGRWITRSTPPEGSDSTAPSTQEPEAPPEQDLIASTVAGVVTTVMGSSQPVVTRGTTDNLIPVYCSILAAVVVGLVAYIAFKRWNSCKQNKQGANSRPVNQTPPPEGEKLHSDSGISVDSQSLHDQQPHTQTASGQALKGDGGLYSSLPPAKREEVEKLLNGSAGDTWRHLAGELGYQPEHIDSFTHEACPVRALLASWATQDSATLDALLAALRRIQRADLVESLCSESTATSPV

Changes are numbered by the printed parent chain. In names and notes the source's numbering stands. Results are given in words; binding and its absence hold for the method and conditions named. In cells and extracts the contact can be indirect. Some results given as binding are weak or reduced against the parent protein; the word gives no strength.

Assay [1] has as its target human p75 neurotrophin receptor (p75NTR) expressed in CHO-K1 cells (human) (UniProt P08138). The assay is described as follows: co-immunoprecipitation with goat anti-human NgR1 antibody from co-transfected CHO-K1 cells, Western blot for p75NTR.
Assay [2] shares this target. The assay is described as follows: co-immunoprecipitation with goat anti-human NgR1 antibody from co-transfected CHO-K1 cells, Western blot for p75NTR (control experiments). For orientation: Immunoblotting shows a protein as a band on a membrane.

B1: mutant NgR1 EM7 (K277D/R279D) (receptor, human, UniProt Q9BZR6 27-447, looked up)
chain: CPGACVCYNEPKVTTSCPQQGLQAVPVGIPAASQRIFLHGNRISHVPAASFRACRNLTILWLHSNVLARIDAAAFTGLALLEQLDLSDNAQLRSVDPATFHGLGRLHTLHLDRCGLQELGPGLFRGLAALQYLYLQDNALQALPDDTFRDLGNLTHLFLHGNRISSVPERAFRGLHSLDRLLLHQNRVAHVHPHAFRDLGRLMTLYLFANNLSALPTEALAPLRALQYLRLNDNPWVCDCRARPLWAWLQDFDGSSSEVPCSLPQRLAGRDLKRLAANDLQGCAVATGPYHPIWTGRATDEEPLGLPKCCQPDAADKASVLEPGRPASAGNALKGRVPPGDSPPGNGSGPRHINDSPFGTLPGSAEPPLTAVRPEGSEPPGFPTSGPRRRPGCSRKNRTRSHCRLGQAGSGGGGTGDSEGS
Take B1: the binding entry in assay [1] is “binds”.

B2: mutant NgR1 EM11 (R279A) (receptor, human, UniProt Q9BZR6 27-447, looked up)
chain: B1 chain with D251K, D253A
In the case of B2, the binding entry in assay [1] is reported as “binds”.

B3: mutant NgR1 EM8 (K277A, R279A) (receptor, human, UniProt Q9BZR6 27-447, looked up)
chain: B1 chain with D251A, D253A
B3: the binding entry in assay [1] was “binds”.

B4: wild type human Nogo Receptor 1 (NgR1), full-length, expressed in cells (receptor, UniProt Q9BZR6 27-447, looked up)
chain: B1 chain with D251K, D253R
For the molecule B4, in assay [2], the binding result was “binds”.

B5: mutant NgR1 EM10 (K277A) (receptor, human, UniProt Q9BZR6 27-447, looked up)
chain: B1 chain with D251A, D253R
With B5, in assay [1], the binding result is “binds”.
